The other results are listed elsewhere or left out.
Compound: Cc1ccc(NC(=O)c2ccc(CN3CC[C@H](N(C)C)C3)c(C(F)(F)F)c2)cc1Nc1nccc(-c2cncnc2)n1 [bafetinib]
Experiment: log2 fold change, soluble protein after heating vs DMSO (PISA); higher = thermal stabilisation; K562 lysate, 10 uM; active = over 0.2 and 3.5 SD of the protein, either way, in both replicates (recomputed)
Procedure, shortened: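 Soluble protein was defined as the supernatant remaining after 21,000xg for 90 min, following pooling of heated aliquots and adjustment to 0.5% NP-40 at 4°C. Before that, crude K562 extract at 1 mg/mL protein in PBS pH 7.4 with 1 mM MgCl2 was treated with 10 μM compound for 30 min and heated for 3 min across 48°C-58°C. Quantification used TMTpro 16plex LC-MS/MS with channel sums equalised, and values are log-two fold changes in thermal stability relative to solvent controls from duplicates.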

The chains behind the UniProt entries cited, without tags or fusion partners. Where a name states a change or a piece, a line headed by the entry shows the natural chain unless it says otherwise.
UniProt O15397, whole entry, looked up: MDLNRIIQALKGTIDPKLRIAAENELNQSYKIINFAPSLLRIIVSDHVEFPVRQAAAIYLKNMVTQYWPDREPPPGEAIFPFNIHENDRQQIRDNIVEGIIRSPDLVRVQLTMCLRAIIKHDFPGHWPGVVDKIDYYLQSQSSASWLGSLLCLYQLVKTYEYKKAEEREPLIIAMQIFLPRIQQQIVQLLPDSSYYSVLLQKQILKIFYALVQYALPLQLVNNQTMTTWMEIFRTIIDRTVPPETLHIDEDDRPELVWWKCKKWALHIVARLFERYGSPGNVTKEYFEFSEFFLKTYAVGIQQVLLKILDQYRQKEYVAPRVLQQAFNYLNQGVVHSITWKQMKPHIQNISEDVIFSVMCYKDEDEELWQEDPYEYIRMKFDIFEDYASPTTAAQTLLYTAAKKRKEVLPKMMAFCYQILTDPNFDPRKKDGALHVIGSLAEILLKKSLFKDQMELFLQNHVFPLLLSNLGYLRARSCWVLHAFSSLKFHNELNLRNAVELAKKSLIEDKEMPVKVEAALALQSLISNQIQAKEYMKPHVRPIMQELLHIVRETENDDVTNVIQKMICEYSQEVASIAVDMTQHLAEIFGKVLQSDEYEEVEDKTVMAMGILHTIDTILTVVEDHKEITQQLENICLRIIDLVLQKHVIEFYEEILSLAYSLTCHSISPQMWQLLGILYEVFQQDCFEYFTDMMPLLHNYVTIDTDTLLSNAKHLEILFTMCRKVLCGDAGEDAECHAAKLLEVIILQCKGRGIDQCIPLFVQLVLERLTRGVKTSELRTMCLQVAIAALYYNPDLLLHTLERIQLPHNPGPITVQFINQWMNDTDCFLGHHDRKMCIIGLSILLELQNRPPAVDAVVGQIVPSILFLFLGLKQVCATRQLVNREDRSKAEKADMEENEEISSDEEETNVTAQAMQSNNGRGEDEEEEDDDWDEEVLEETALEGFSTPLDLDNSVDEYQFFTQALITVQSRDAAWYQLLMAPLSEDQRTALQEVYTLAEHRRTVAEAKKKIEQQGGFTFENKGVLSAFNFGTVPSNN
UniProt O95279: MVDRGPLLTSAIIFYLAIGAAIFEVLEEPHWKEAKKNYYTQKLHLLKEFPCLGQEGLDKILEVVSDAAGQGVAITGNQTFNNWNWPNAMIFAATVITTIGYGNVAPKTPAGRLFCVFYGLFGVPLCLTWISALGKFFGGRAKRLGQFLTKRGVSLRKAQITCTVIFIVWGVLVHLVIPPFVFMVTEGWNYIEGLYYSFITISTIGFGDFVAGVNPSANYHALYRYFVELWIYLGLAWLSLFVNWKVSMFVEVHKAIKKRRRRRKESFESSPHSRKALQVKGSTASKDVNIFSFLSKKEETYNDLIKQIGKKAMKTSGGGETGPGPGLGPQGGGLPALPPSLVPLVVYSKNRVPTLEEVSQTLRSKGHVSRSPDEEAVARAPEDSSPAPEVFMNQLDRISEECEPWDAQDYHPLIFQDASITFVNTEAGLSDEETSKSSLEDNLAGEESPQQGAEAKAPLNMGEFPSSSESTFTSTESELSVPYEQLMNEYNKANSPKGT
UniProt Q9NQX7: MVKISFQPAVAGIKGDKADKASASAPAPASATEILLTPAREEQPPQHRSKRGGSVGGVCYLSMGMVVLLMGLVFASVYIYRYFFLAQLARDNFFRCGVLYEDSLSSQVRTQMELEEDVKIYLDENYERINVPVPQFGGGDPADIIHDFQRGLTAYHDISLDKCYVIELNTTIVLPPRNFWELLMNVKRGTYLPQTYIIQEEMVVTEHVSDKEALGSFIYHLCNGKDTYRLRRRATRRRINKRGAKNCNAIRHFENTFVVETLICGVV
UniProt P19823: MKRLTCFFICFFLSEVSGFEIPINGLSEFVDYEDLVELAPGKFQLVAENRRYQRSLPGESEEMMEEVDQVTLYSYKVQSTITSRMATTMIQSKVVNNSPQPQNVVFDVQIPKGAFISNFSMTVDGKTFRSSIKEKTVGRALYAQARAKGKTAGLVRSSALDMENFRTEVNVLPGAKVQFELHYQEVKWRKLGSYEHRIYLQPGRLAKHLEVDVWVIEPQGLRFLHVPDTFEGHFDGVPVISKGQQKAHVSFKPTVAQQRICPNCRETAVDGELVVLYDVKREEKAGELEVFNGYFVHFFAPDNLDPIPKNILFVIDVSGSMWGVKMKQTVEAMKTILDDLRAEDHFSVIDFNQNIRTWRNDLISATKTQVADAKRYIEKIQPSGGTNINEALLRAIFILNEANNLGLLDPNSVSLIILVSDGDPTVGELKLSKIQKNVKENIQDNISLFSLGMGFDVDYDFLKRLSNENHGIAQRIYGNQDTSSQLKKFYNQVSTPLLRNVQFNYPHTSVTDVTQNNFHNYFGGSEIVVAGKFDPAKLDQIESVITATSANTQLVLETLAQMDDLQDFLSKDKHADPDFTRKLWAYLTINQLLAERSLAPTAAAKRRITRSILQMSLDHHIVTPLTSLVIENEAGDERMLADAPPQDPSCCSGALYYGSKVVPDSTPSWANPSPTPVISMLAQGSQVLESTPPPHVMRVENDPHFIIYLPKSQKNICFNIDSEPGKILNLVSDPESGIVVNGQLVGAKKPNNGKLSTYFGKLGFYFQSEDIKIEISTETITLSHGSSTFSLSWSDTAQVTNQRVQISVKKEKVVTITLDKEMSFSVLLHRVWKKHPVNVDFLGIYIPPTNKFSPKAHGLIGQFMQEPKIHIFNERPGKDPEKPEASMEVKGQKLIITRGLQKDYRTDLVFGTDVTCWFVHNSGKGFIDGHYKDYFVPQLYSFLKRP
UniProt Q9UK76: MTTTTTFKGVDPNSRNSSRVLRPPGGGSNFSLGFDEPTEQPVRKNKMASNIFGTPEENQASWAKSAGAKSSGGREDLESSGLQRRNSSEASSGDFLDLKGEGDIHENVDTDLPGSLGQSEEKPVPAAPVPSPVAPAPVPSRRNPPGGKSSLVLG
UniProt Q86VI3: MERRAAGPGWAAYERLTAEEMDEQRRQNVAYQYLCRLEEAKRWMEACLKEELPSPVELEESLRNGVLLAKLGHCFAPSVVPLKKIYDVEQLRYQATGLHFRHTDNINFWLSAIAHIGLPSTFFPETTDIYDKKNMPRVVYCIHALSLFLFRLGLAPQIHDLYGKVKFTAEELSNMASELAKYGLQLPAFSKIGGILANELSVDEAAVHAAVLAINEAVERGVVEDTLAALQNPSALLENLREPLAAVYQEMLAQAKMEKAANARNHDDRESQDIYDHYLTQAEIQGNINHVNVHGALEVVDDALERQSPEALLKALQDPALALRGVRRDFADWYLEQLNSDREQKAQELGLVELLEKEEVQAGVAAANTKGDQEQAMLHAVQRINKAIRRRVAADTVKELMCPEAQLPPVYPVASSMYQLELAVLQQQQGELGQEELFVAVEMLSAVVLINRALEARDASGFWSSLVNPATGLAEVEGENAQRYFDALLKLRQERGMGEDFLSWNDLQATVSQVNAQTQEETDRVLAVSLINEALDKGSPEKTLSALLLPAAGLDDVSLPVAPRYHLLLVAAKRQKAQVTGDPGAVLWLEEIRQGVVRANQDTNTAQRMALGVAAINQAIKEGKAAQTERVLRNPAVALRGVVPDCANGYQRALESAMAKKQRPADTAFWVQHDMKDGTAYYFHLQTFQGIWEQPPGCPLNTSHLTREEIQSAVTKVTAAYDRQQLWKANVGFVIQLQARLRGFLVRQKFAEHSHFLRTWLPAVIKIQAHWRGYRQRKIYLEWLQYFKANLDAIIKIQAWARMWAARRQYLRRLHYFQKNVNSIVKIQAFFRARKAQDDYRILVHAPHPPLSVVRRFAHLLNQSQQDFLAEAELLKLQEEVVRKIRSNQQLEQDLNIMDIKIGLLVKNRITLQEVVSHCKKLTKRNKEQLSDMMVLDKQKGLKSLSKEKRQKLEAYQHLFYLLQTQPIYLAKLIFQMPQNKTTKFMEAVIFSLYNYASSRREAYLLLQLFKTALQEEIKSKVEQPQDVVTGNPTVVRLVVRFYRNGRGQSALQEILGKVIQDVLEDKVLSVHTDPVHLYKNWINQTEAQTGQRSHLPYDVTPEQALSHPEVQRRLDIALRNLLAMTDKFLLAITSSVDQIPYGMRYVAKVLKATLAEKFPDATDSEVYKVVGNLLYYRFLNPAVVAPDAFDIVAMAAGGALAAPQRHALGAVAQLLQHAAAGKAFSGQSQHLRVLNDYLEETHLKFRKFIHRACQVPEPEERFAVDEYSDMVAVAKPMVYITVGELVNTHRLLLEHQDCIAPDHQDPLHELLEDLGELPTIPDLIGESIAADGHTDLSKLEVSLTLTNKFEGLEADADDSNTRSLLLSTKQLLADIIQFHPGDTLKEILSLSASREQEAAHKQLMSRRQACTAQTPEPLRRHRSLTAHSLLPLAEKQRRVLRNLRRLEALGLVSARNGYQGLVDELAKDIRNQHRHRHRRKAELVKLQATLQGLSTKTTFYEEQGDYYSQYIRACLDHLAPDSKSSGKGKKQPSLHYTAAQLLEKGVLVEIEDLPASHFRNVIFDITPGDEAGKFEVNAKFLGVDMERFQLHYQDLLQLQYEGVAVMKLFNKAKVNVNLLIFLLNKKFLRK
UniProt Q96DY2: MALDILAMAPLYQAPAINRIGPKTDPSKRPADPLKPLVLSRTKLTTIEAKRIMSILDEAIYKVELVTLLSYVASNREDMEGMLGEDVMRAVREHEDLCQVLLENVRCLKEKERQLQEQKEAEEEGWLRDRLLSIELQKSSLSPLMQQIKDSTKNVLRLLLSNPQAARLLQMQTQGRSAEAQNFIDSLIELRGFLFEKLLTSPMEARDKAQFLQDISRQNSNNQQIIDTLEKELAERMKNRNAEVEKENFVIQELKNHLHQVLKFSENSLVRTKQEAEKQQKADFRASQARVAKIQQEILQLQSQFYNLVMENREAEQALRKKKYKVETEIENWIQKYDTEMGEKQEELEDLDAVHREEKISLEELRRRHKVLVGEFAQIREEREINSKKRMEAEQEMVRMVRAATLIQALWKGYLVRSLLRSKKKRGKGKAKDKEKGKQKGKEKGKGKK
UniProt O43736: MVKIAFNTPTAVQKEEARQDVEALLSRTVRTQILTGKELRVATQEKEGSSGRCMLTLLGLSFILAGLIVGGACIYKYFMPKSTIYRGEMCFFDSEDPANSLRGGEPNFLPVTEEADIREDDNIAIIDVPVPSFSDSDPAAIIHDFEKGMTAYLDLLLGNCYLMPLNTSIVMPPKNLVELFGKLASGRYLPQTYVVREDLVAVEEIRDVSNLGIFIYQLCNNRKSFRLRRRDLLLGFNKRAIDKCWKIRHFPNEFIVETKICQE
UniProt Q9Y4H2: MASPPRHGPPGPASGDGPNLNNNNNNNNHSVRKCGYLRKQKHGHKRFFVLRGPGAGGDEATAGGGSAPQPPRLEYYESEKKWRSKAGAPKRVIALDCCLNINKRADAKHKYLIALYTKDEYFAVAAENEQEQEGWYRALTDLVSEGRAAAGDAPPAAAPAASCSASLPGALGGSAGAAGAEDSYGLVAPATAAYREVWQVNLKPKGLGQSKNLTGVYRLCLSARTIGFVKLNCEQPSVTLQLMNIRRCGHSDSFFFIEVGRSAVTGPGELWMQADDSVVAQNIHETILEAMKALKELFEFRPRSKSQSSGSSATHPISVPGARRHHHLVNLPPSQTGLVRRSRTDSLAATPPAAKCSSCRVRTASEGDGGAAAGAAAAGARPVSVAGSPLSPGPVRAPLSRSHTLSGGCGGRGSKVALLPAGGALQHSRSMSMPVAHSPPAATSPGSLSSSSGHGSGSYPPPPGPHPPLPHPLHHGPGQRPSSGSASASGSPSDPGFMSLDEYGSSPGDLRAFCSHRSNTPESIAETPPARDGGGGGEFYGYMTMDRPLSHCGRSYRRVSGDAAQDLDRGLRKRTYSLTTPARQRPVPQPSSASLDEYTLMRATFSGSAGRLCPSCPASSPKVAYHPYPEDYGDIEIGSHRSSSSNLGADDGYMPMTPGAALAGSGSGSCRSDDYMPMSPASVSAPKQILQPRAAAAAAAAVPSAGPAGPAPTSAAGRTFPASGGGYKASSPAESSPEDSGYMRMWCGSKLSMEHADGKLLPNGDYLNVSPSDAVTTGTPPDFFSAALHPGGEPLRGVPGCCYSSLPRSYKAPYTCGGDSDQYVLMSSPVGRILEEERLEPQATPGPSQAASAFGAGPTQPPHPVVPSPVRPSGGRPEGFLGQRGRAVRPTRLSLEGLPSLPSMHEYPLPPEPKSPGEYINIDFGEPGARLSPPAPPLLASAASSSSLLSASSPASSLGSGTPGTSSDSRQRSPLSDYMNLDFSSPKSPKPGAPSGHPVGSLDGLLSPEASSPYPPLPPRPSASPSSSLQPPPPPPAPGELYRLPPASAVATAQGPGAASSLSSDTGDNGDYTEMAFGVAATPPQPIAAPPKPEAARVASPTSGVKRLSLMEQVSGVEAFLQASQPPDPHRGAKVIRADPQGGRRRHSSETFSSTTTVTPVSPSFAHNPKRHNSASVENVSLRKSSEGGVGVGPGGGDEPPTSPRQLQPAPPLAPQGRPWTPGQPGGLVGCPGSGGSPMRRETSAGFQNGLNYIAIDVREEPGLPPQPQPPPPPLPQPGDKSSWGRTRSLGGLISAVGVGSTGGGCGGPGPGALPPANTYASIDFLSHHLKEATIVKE

log2 fold change, inactive:
KDM1A (UniProt O60341) -0.016
IPO8 (UniProt O15397) -0.034
ITGB1 (UniProt P05556) 0.008
KCNK5 (UniProt O95279) -0.025
JUND (UniProt P17535) 0.045
ITM2C (UniProt Q9NQX7) -0.532
ITIH2 (UniProt P19823) -0.045
JPT1 (UniProt Q9UK76) -0.018
IQUB (UniProt Q8NA54) 0.057
KBTBD7 (UniProt Q8WVZ9) -0.213
ISCA2 (UniProt Q86U28) 0.029
ITGB1BP1 (UniProt O14713) 0.155
IQGAP3 (UniProt Q86VI3) 0.132
IQCD (UniProt Q96DY2) -0.266
JTB (UniProt O76095) -0.098
IQGAP1 (UniProt P46940) 0.001
JAK3 (UniProt P52333) 0.14
KCTD10 (UniProt Q9H3F6) -0.078
ITPR1 (UniProt Q14643) -0.128
KAT14 (UniProt Q9H8E8) -0.115
KAZN (UniProt Q674X7) -0.054
ITM2A (UniProt O43736) -0.147
IRS2 (UniProt Q9Y4H2) 0.031
KCTD2 (UniProt Q14681) 0.045

Fetched one by one from the entries so far:
log2 fold change, inactive:
ITPR1 (UniProt Q14643) -0.128
KDM1A (UniProt O60341) -0.016

Source: the supplement of paper PMC10849652
